Measured values reported in publication PMC6776368.
Results are given in words; binding and its absence hold for the method and conditions named. Binding seen in cells or lysates may run through a third protein. Some binding calls cover weakened binding; strength is not graded here.

Chains of the proteins cited; added tags and fusions are not shown.
UniProt Q6PH56: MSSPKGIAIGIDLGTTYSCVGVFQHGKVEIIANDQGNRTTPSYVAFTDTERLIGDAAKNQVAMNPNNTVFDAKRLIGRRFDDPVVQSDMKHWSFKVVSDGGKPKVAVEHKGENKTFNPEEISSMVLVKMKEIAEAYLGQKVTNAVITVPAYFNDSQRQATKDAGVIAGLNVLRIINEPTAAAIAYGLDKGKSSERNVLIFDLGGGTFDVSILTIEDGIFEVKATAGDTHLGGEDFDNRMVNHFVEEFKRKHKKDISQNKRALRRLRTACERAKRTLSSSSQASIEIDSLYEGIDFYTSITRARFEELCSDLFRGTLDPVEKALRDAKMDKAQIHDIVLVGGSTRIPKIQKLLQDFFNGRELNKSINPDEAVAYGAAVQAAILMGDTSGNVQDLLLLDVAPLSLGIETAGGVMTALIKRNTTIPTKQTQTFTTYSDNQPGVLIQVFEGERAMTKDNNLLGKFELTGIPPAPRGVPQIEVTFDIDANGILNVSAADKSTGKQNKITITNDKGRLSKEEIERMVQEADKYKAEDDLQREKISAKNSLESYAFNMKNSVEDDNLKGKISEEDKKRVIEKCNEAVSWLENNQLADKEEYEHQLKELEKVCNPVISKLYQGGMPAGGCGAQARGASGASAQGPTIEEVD

Legend:
Assay in all cases: co-IP; HEK293T cells transiently transfected with C-terminally myc-tagged Marcks proteins and N-terminally HA-tagged Hsp70.3; blots with anti-Myc and anti-HA; which tag was precipitated is not stated
[1] = biological target: T1, Marcksl1b (zebrafish) (UniProt Q6NWH2)
T1 sequence: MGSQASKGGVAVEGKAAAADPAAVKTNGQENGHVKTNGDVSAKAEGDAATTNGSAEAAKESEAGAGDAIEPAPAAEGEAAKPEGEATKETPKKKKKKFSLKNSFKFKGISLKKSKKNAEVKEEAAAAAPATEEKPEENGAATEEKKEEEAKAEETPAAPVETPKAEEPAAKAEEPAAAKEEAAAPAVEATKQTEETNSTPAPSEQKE

[2] = biological target: T2, Marcksl1a (zebrafish) (UniProt Q6PD99)
T2 sequence: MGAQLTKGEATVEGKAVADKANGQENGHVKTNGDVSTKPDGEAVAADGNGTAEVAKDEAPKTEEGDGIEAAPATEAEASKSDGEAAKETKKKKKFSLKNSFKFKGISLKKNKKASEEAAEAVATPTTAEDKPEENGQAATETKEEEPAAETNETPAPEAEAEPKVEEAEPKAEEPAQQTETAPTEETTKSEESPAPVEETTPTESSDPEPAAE

[3] = biological target: T3, Marcksb (zebrafish) (UniProt F6NXD5)
T3 sequence: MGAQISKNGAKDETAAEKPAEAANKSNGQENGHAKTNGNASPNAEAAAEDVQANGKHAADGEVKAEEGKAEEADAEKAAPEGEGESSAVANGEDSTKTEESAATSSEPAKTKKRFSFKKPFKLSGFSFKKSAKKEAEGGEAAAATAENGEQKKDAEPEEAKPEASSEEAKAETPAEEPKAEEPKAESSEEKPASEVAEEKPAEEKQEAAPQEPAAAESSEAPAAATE

Measured: binding

Hsp70.3 (from UniProt Q6PH56 1-643)
binds: all assays above
